Hit rate of the full screen: of about 52,000 sequences, about 210 (0.4%) were called active.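 How the source made its calls: active means gene whose silencing raises cell survival under the drug, median off-target-corrected z-score across its silencing RNAs 2 or more; inactive means the rest.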 The list shows a part of the results.
Assay: Resistance to Poly (ADP-Ribose) Polymerase inhibitor: Gene Identification via Genome-wide siRNA Screen
Conditions: mouse BRCA2 R2336H ES cells, olaparib, CellTiter-Glo viability; stronger effect = higher value
In short: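 Mouse BRCA2 R2336H ES cells were reverse-transfected with siRNA (20 nM final), treated at 48 h with 500 nM olaparib, and read by CellTiter-Glo after 72 h. Scores: MAD-based z per siRNA, median per gene, seed off-target correction.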

Row | Sequence | z-score
1 | GGAAACACUAAAGUCAUUUTT against Gabrg1 | inactive: -1.18
2 | GGGUAAAAUCAGUGAACCUTT against 1810031K02Rik | inactive: -1.51
3 | CGAGGAUUUCGAUUCCAUUTT against 4933405K18Rik | inactive: -0.0374
4 | GGUUAUAGAAUGCUUGAUUTT against Rttn | inactive: 0.0468
5 | GCAUGUAUGUGUCGAUAAUTT against Slc33a1 | inactive: 0.411
6 | CGACUUUGGACAAAAAUUGTT against Fbxl11 | inactive: 0.984
7 | GGACAUCUUCUCCGAUAUCTT against Tgfbr2 | inactive: -0.674
8 | GGCUUUAUGCAUCAGUUAATT against AI507211 | inactive: 0.589
9 | GCUCAAGGACUUACGCAACTT against BC030314 | inactive: 0.155
10 | GGAGUGGAGUGAUUUCAGATT against Pdcd6 | inactive: -1.84
11 | GGUUCAAAACCAAGAGUGUTT against Ahi1 | inactive: 0.849
12 | GGAAAAAGAAGUCCACACATT against 1700016D06Rik | inactive: -0.802
13 | GGACACUAUCCGUGCAUCUTT against Tsg101 | inactive: 0.374
14 | CGUGGGUAGAUCCACAUUUTT against 9030611K07Rik | inactive: -2.61
15 | GGAAGAUGAGAAAAUUCCATT against Ccni | inactive: -0.436
16 | GCUAUUGCCUUAGAUCCAUTT against Lrp6 | inactive: 0.652
17 | GGUGCAGAAGAUGUGGAUGTT against Cldn1 | inactive: -1.18
18 | GGACCUUCAGAAGCUGAUCTT against 2610528E23Rik | inactive: 1.39
19 | GCCAUUCUUCUCUUAGAAGTT against Npepl1 | inactive: -0.0973
20 | GGCUCCAUAUGGAAUGCAGTT against Ets2 | inactive: 0.401
21 | GGUAGCUAGAGAACUCUAUTT against Za20d1 | inactive: -0.824
22 | GGAUUAGAGGCUAAGGCAGTT against D10Bur2e | inactive: -2.08
23 | GGGACAAGUUUCUUAACUGTT against F9 | inactive: -0.261
24 | CGGCCUGUUAAAUACGCUGTT against Slc39a4 | inactive: -0.188
25 | GGGAUAGGGUUCAAUUAGGTT against Bcl2l13 | inactive: 0.222
26 | GGUUUGAAUGAAUUCAAGGTT against 6030452D12Rik | inactive: -0.142

In a second layout: entries from further up.
Row	Sequence	z-score
13	GGACACUAUCCGUGCAUCUTT against Tsg101	inactive: 0.374
14	CGUGGGUAGAUCCACAUUUTT against 9030611K07Rik	inactive: -2.61
15	GGAAGAUGAGAAAAUUCCATT against Ccni	inactive: -0.436

(list continues)

Row | Sequence | z-score
27 | GACAAUACCAUCUCCCACUTT against Olfr347 | inactive: -1.13
28 | GGAUAGCUUCCUUCAGGUGTT against Hkr2 | inactive: 2.98
29 | GGAAAAAGGCACGAAAUGATT against 1110013G13Rik | inactive: -1.21
30 | GUUCUUAGAGCAGAAGUACTT against Zar1 | inactive: -0.814
31 | CCUACCAACUUUACAAGAUTT against Tlr3 | inactive: 0.0494
32 | GGAAACAAUAACAACUUCCTT against Spinlw1 | inactive: 0.871
33 | GGUACUAGGUCUGAGGGAGTT against Rdh6 | inactive: 0.16
34 | GGUUUCAGAAUGGAGUUACTT against Saa2 | inactive: 0.219
35 | GCAGGUCACUUUCUAGAGATT against Sfrs3 | inactive: 0.314
36 | CCAGAGCAACUGUUGCUAATT against Itgb2l | inactive: 1.25
37 | GGUUAGAGAUUGUUCUGUUTT against Olfr267 | inactive: -0.733
38 | GGGAAUUGGGUGUAUACAATT against Hmgcl | inactive: -0.596
39 | CCCUAGAAACUACAGUAAUTT against B830009D23Rik | inactive: -1.12
40 | GGUCUUCAAAAGCAAUAAATT against Mcm3ap | inactive: -0.227
41 | GGGUAAAUCUACAAGAAGUTT against Snx25 | inactive: 0.517
42 | GGAUUUGAGCAACUACAGUTT against Eya3 | inactive: 0.0724
43 | GGAACCGCUGAUGCUUAAGTT against Ctsl | inactive: -0.736
44 | GGAUGUUCUUGAAGAAUUCTT against Dgkb | inactive: 0.302
45 | GGCUGGAUGGCAUCUUUCUTT against 4732467L16Rik | inactive: -1.52
46 | GCAACAGACAUUGCCAUCATT against Olfr627 | inactive: -0.132
47 | GCAUUAAUUGCUUCUCUUATT against Nup155 | inactive: -0.602
48 | GGGCCUAUGCAAUGAAACCTT against Tshr | inactive: -1.29
49 | GAUUUUGUUUAUGGCCCAGTT against Olfr1261 | inactive: -0.0334
50 | GCAUUCUAUCUUGUCUGGATT against 5730522E02Rik | inactive: -1.73
51 | AUCUCUCCUGUUCUAACACTT against Olfr26 | inactive: -1.75
52 | CCAACUCUAUCGUACUAAATT against AW049604 | inactive: 0.0579

Excerpt: nos. 39 to 40
Row | Sequence | z-score
39 | CCCUAGAAACUACAGUAAUTT against B830009D23Rik | inactive: -1.12
40 | GGUCUUCAAAAGCAAUAAATT against Mcm3ap | inactive: -0.227

(next part)

Row | Sequence | z-score
53 | GGCUAUUCAGGACUACAGCTT against Siat5 | inactive: 1.37
54 | CGUGAACGUAGAGUUUUCUTT against Fcrh3 | inactive: -0.118
55 | GGCUAUGACUAGCUAGAAUTT against Hoxc5 | inactive: 0.154
56 | GGAUGACUGUUACAUUAGGTT against E130306M17Rik | inactive: -0.712
57 | GCUGACCGAUGUCAUCCUCTT against Itpk1 | inactive: 2.41
58 | GCUAGUUAGAACCUCGUUCTT against Cdk5 | inactive: 0.283
59 | GGAUUUCGAGAUAACUAUGTT against Tbr1 | inactive: 1.22
60 | GCACCAAGUCGUAUAAACATT against Sh3glb1 | inactive: 1.11
61 | GGAUCAUUCAGCAUUGUAGTT against Dnm1l | inactive: -0.979
62 | GGAGGAGUAUGUUAAGGCCTT against Myh6 | inactive: 1.39
63 | CGGUUGUCUUUAAAGAUUCTT against Gprin1 | inactive: -0.604
64 | GGGAGAGCUGCUGUUUUUCTT against BC053073 | inactive: 0.167
65 | GCAUCUGUGUCCAAGUACUTT against Jph1 | inactive: -0.302
66 | CCUACUACACUCAAGGGCATT against Pgc | inactive: 3.04
67 | GGAACAUUUCAACCGCCUGTT against E130012A19Rik | inactive: 2.41
68 | GGAAGUCUCUAGGUUGUAUTT against Ddit4 | inactive: -0.766
69 | GGAAUGUUGCCGUCAUGUUTT against Olfr568 | inactive: -0.966
70 | GGACAAAGAAGUGAAGUGUTT against Slc26a1 | inactive: -0.959
71 | UACAUUAGUAGAAUGGAGGTT against Mageb3 | inactive: -0.381
72 | CGAUUUAUCUCAGACUUCATT against E430019B13Rik | inactive: -0.312
73 | GGUUUAAACUUUCAUGUGGTT against Dffb | inactive: -0.0825
74 | GGAGGCAGGAGCAAAACAUTT against Olfr1111 | inactive: 0.529
75 | GCCAAGAGACUCAAGUAGCTT against Nkg7 | inactive: 0.656
76 | GGAAAAAGAAACCAGUGUUTT against Relb | inactive: 0.993
77 | GGAUCUCGAGCUGACAGAATT against Gm1082 | inactive: -0.534
78 | GGCCUUAAAGAAACACAAGTT against Hnrph2 | inactive: 0.687

Row | Sequence | z-score
79 | CGAAGUGGUUAACCACCUCTT against 1700026L06Rik | inactive: 0.787
80 | GCUCAAGUCUACGAGAGUUTT against D19Ertd678e | inactive: -1.28
81 | CCUGCACAACUGGAAACCUTT against Pvrl2 | inactive: 0.639
82 | UAUUCAACCUCGGUCUCAGTT against Olfr473 | inactive: 1.24
83 | CCAGGAAAGAUAUUUGAUGTT against H2-Tw3 | inactive: -0.265
84 | GGAAGCUGGCCAUAGAGAATT against Sall4 | inactive: 0.26
85 | GCAUUAACAAAUAUCGUGUTT against Sin3a | inactive: -0.738
86 | GGUUCUUCAAACUAGACCGTT against Mov10 | inactive: -0.0502
87 | GCGACUAAUCCUUUGCUACTT against Cdc42bpb | inactive: 0.594
88 | GGUUAUGAGGAACAAUUAGTT against 2310015I08Rik | inactive: -0.123
89 | GCUAACAACGUGUGCUUCUTT against BC029169 | inactive: 1.09
90 | GGUCAAGUCAGUAACUGCATT against Olfr10 | inactive: -0.628
91 | GCGGUUACAAAUAUGUGGGTT against Yif1 | inactive: 0.365
92 | GCUGGAACUUAGUGUUCAGTT against Myst4 | inactive: -1.58
93 | GGGAAAAGAGCUUGUCCGATT against 4921501E09Rik | inactive: 0.552
94 | GGGCAAGUUCCAUCUCCUUTT against Cdc42ep2 | inactive: -1.67
95 | CCUAUUAUGUCAACAUUGATT against Il6st | inactive: 1.43
96 | GGAAAAAAAAAAGGACGAGTT against Smap1 | inactive: -0.611
97 | GGUUGGCUGGAAUUUGACATT against Bmp6 | inactive: 1.23
98 | GGUUACUAAGUGAAGUAAATT against Actr1b | inactive: -0.0287
99 | CGUGCAUGCAAAUUAUGUATT against 4933417O08Rik | inactive: -0.372
100 | CCAUGUCCAAUGAGGACUUTT against Htr1b | active: 1.74
101 | GGAUGAUGAGUUUCUCACATT against Pkd1l2 | inactive: 0.637
102 | GCAACAAUAUGAAUAAUGGTT against Robo1 | inactive: -0.425
103 | CGAUGUGGACGAGAAGCUATT against Gm592 | inactive: 0.203
104 | GGGAGAAACCUGUGCAAAUTT against Serpinb6c | inactive: 0.67

Reference: PubChem BioAssay AID1347423 (Functional Genomics Laboratory (NCATS/FGL), 2020)
